According to PMC11088878:
Results are given in words; binding and its absence hold for the method and conditions named. In cells and extracts the contact can be indirect. For some assays here: Where a sequence is shown, tags or fusion partners need not be part of it.

Sequences of proteins named here, by UniProt entry; tags and fusion partners are left off.
UniProt P22147: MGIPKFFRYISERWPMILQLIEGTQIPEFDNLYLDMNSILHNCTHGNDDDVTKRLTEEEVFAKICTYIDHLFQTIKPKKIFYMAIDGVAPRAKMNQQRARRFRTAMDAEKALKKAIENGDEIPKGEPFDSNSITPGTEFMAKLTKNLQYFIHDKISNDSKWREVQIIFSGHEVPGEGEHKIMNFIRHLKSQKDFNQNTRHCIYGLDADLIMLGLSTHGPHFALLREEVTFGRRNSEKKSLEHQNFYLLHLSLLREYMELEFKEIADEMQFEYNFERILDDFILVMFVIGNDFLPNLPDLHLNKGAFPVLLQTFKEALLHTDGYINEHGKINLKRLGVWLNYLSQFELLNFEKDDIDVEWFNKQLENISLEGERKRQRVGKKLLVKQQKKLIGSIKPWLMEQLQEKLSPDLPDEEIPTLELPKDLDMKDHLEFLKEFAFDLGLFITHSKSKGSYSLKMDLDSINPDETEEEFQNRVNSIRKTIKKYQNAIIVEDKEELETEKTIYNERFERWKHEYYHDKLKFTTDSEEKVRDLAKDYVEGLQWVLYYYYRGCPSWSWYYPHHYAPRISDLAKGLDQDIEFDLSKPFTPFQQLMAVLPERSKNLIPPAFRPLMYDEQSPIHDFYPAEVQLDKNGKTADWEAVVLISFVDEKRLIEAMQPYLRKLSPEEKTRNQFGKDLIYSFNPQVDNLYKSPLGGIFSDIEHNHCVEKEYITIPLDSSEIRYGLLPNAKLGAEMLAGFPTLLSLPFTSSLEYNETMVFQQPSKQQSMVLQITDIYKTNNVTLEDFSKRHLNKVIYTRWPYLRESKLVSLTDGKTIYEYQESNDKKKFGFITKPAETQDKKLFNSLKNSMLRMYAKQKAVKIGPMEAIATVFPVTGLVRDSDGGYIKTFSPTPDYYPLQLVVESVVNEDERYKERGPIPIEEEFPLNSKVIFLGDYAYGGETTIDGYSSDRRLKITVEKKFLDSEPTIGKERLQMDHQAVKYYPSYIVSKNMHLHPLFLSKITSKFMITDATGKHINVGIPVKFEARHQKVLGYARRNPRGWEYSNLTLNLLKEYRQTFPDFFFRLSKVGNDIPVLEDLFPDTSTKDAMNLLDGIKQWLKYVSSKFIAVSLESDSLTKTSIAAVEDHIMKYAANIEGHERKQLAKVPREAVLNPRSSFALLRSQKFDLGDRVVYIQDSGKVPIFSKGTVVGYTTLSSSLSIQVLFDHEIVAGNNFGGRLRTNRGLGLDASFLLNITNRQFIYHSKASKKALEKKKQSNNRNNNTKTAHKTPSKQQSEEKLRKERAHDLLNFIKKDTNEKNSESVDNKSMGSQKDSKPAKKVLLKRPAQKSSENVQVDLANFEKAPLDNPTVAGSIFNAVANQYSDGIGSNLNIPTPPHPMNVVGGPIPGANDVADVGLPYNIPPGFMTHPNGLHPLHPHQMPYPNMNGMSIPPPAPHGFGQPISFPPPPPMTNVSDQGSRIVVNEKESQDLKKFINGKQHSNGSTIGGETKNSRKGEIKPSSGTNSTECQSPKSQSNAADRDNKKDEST

Tests used:
[1] = biological target: GFP-tagged Xrn1 (S. cerevisiae) (UniProt P22147); assay: co-IP; 1 mg whole cell extract of exponentially growing yeast, pre-cleared with protein A resin, incubated 2 h at 4°C with anti-GFP antibodies covalently linked to sepharose beads; six washes with breaking buffer (30 mM HEPES-KOH pH 7.4, 50 mM KCl, 10% glycerol); immunoblot with antibodies against GFP, Gcn1, Gcn2, Gcn20, Pgk1
[2] = biological target: T1, Gcn20-GFP (S. cerevisiae) (UniProt P43535); assay: as above
T1 sequence: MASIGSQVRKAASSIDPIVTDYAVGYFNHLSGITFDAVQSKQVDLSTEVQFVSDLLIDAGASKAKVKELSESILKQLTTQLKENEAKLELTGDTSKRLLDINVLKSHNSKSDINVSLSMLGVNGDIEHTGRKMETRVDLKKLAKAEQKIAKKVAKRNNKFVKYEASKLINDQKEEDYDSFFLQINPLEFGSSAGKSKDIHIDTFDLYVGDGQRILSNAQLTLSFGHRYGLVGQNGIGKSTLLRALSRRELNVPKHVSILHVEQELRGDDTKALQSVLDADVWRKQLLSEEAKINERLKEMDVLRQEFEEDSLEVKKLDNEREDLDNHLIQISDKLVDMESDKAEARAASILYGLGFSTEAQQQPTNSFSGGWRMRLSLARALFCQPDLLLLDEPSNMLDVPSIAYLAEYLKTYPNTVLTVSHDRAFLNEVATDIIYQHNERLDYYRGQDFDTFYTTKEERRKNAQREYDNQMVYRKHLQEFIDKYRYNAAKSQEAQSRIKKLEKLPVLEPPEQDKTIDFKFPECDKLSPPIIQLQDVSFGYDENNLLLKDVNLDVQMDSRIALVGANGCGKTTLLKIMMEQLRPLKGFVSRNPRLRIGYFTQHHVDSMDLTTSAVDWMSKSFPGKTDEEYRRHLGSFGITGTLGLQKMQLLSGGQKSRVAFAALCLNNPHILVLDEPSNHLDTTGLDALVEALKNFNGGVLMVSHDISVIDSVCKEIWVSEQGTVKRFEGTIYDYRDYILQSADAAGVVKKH

B1: Pgk1 (protein, UniProt P00560 1-416)
chain: MSLSSKLSVQDLDLKDKRVFIRVDFNVPLDGKKITSNQRIVAALPTIKYVLEHHPRYVVLASHLGRPNGERNEKYSLAPVAKELQSLLGKDVTFLNDCVGPEVEAAVKASAPGSVILLENLRYHIEEEGSRKVDGQKVKASKEDVQKFRHELSSLADVYINDAFGTAHRAHSSMVGFDLPQRAAGFLLEKELKYFGKALENPTRPFLAILGGAKVADKIQLIDNLLDKVDSIIIGGGMAFTFKKVLENTEIGDSIFDKAGAEIVPKLMEKAKAKGVEVVLPVDFIIADAFSADANTKTVTDKEGIPAGWQGLDNGPESRKLFAATVAKAKTIVWNGPPGVFEFEKFAAGTKALLDEVVKSSAAGNTVIIGGGDTATVAKKYGVTDKISHVSTGGGASLELLEGKELPGVAFLSEKK
binding [1]: no binding
binding [2]: no binding
